PubChem BioAssay AID504804, Drosophila RNAi Screening Center – 2011
Screen: 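Fly genes whose loss lessens doxorubicin-driven cell death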 (primary screen). Cells: Drosophila Kc cells. Knock-down reagent: long dsRNA against Drosophila genes, 0.5 µg dsRNA per well. Timing: 96 h (48 h knock-down, then 48 h drug). Conditions: doxorubicin 5 µg/ml for 48 h, added 48 h after dsRNA. Measurement: 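Viability measured as cellular ATP by luminescence after 48 h knock-down then 48 h doxorubicin at 5 µg/ml; unnormalised plate counts for each replicate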. Scale: raw ATP luminescence: higher = more viable cells, protection from doxorubicin. Call rule: 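Active when both duplicate wells lie at least 2 SD above the plate mean and protection is confirmed by rescreening and independent dsRNAs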.
In all, the deposit lists about 19,000 reagents; shown is an unselected part of those with a known target gene and a result. Over the whole deposit, 47 (0.25%) are marked active. 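Signals are raw, not normalised; exact z-scores behind calls not deposited; actives needed confirmation, so some wells reaching 2 SD are inactive.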 A number with no mark means an inactive call. The numbers tell different reagents against one gene apart. Names joined by + are all predicted targets of the reagent. Reagent sequences are not shown.

| gene | reagent | SD above plate mean | raw ATP luminescence, replicate 1 | raw ATP luminescence, replicate 2 |
| --- | --- | --- | --- | --- |
| CG31275 | 1 | – | 59480 | 64300 |
| vsg (visgun) | 1 | – | 82423 | 71767 |
| Adgf-C (Adenosine deaminase-related growth factor C) | 1 | – | 58760 | 98550 |
| CG13795 | 1 | – | 43580 | 64653 |
| jim | 1 | – | 40070 | 29360 |
| Gem4b + Gem4c + Glos | 1 | – | 26640 | 38230 |
| alpha-Est1 (alpha-Esterase-1) | 1 | – | 36570 | 44877 |
| Cp36 (Chorion protein 36) | 1 | – | 37990 | 42890 |
| CG4582 | 1 | – | 50530 | 54420 |
| bmm (brummer) | 1 | – | 23200 | 25797 |
| CG9590 | 1 | – | 49207 | 45730 |
| CG1307 | 1 | – | 52153 | 19977 |
| CG18563 | 1 | – | 88563 | 1.11e5 |
| PH4alphaMP (prolyl-4-hydroxylase-alpha MP) | 1 | – | 70680 | 44810 |
| CG6996 | 1 | – | 67403 | 58493 |
| Muc68Ca (Mucin 68Ca) | 1 | – | 1.72e5 | 1.74e5 |
| Muc68Ca (Mucin 68Ca) | 2 | – | 80773 | 62460 |
| Npc1b (Niemann-Pick type C-1b) | 1 | – | 3.15e5 | 2.83e5 |
| CG42246 | 1 | – | 1.89e5 | 1.76e5 |
| CG3760 | 1 | – | 1.84e5 | 2.26e5 |
| Cdc42 (Cell division cycle 42) | 1 | – | 2.22e5 | 2.18e5 |
| CG13728 | 1 | – | 52237 | 37473 |
| CG7252 | 1 | – | 34893 | 42010 |
| CG12432 (retired record) | 1 | – | 2.16e5 | 2.56e5 |
| CG13558 | 1 | – | 53037 | 52157 |
| Galphaq (G protein alpha subunit q) | 1 | – | 60700 | 58823 |
| CG14712 | 1 | – | 49657 | 23333 |
| Itgbn (Integrin betanu subunit) | 1 | – | 70953 | 93767 |
| boca | 1 | – | 52207 | 76700 |
| CG7963 | 1 | – | 45087 | 54340 |
| CG12609 | 1 | – | 2.12e5 | 2.06e5 |
| CG14907 + Mettl4 | 1 | – | 77890 | 60610 |
| CG14907 + Mettl4 | 2 | – | 65570 | 52220 |
| Ndf (Nucleosome-destabilizing factor) | 1 | – | 99487 | 58787 |
| Traf6 (TNF-receptor-associated factor 6) | 1 | – | 36950 | 53170 |
| AcCoAS (Acetyl Coenzyme A synthase) | 1 | – | 65287 | 71353 |
| AcCoAS (Acetyl Coenzyme A synthase) | 2 | – | 20603 | 26550 |

The list goes on; the last 8 above are carried over.
| gene | reagent | SD above plate mean | raw ATP luminescence, replicate 1 | raw ATP luminescence, replicate 2 |
| --- | --- | --- | --- | --- |
| CG7963 | 1 | – | 45087 | 54340 |
| CG12609 | 1 | – | 2.12e5 | 2.06e5 |
| CG14907 + Mettl4 | 1 | – | 77890 | 60610 |
| CG14907 + Mettl4 | 2 | – | 65570 | 52220 |
| Ndf (Nucleosome-destabilizing factor) | 1 | – | 99487 | 58787 |
| Traf6 (TNF-receptor-associated factor 6) | 1 | – | 36950 | 53170 |
| AcCoAS (Acetyl Coenzyme A synthase) | 1 | – | 65287 | 71353 |
| AcCoAS (Acetyl Coenzyme A synthase) | 2 | – | 20603 | 26550 |
| EAChm (Enhancer of Acetyltransferase Chameau) | 1 | – | 80463 | 67413 |
| GAPsec (GTPase activating protein, SECIS-dependent read-through) | 1 | – | 37207 | 34810 |
| Syt4 (Synaptotagmin 4) | 1 | – | 61133 | 54120 |
| CG9040 | 1 | – | 39640 | 32737 |
| CG8654 | 1 | – | 57350 | 56673 |
| Six4 | 1 | – | 50603 | 57940 |
| Pex11c (Peroxin 11c) | 1 | – | 80150 | 67820 |
| Cks30A (Cyclin-dependent kinase subunit 30A) | 1 | – | 85833 | 61600 |
| CG13984 | 1 | – | 26263 | 27833 |
| CG5611 | 1 | – | 26470 | 40060 |
| CG15673 | 1 | – | 56307 | 60573 |
| meng (meng-po) | 1 | – | 33780 | 42813 |
| Ir8a (Ionotropic receptor 8a) | 1 | – | 2.96e5 | 3.41e5 |
| Ir8a (Ionotropic receptor 8a) | 2 | – | 3.63e5 | 3.55e5 |
| CG44153 | 1 | – | 1.27e5 | 76680 |
| CG44153 | 2 | – | 33230 | 32617 |
| CG44153 | 3 | – | 28263 | 21837 |
| CG44153 | 4 | – | 17413 | 24630 |
| CG31538 | 1 | – | 51570 | 47573 |
| CG9837 | 1 | – | 55487 | 59703 |
| CG9130 + CG9133 | 1 | – | 2.55e5 | 2.88e5 |
| CG9130 + CG9133 | 2 | – | 75590 | 75683 |
| Lim3 | 1 | – | 57337 | 49400 |
| Lim3 | 2 | – | 46123 | 44727 |
| CG17024 (retired record) | 1 | – | 93040 | 75730 |
| CG14115 | 1 | – | 78607 | 1.49e5 |
| Txl (Thioredoxin-like) | 1 | – | 69410 | 75927 |
| CG5800 | 1 | – | 2.00e5 | 1.73e5 |
| RhoGAPp190 (Rho GTPase activating protein p190) | 1 | – | 2.74e5 | 2.61e5 |
| CG3062 | 1 | – | 42300 | 51950 |
| Ssl (Suppressor of Stellate-like) | 1 | – | 62890 | 52443 |
| Seipin | 1 | – | 50500 | 67510 |
| Polr3D (RNA polymerase III subunit D) | 1 | – | 33577 | 15377 |
| Oatp58Db (Organic anion transporting polypeptide 58Db) | 1 | – | 39430 | 34370 |
| CG7367 | 1 | – | 44530 | 58113 |
| CG17744 | 1 | – | 73060 | 81080 |
| CG13108 | 1 | – | 41123 | 77553 |
| fat-spondin | 1 | – | 65303 | 79030 |
| Ir94a (Ionotropic receptor 94a) | 1 | – | 1.53e5 | 2.29e5 |
| Lcp65Ae | 1 | – | 85507 | 97623 |
| Rhau (RHAU helicase) | 1 | – | 88283 | 60697 |
| CG14818 | 1 | – | 62690 | 49030 |
| Slu7 | 1 | – | 49670 | 44580 |
| Cpr (Cytochrome P450 reductase) | 1 | – | 1.13e5 | 74293 |
| RpLP0 (Ribosomal protein LP0) | 1 | – | 51090 | 41930 |
| CG32638 | 1 | – | 2.27e5 | 2.54e5 |
| CG42656 | 1 | – | 49110 | 66330 |
| CG16815 | 1 | – | 49400 | 83203 |
| RpL23A (Ribosomal protein L23A) | 1 | – | 33933 | 63257 |
| Rph (Rabphilin) | 1 | – | 2.70e5 | 2.69e5 |
| TSG101 (Tumor susceptibility gene 101) | 1 | – | 45960 | 40193 |
| Vml (Vitelline membrane-like) | 1 | – | 2.26e5 | 2.23e5 |
| Vml (Vitelline membrane-like) | 2 | – | 43840 | 56890 |
| CG16734 | 1 | – | 50920 | 61857 |
| HDAC11 (Histone deacetylase 11) | 1 | – | 62550 | 61140 |
| Dpy-30L1 (Dpy-30-like 1) | 1 | – | 31753 | 44703 |
| E2f2 (E2F transcription factor 2) | 1 | – | 64337 | 57787 |
| CG12723 | 1 | – | 4.17e5 | 3.97e5 |
| witty (without maturity) | 1 | – | 41997 | 80503 |
| Nepl4 (Neprilysin-like 4) | 1 | – | 1.07e5 | 73273 |
| CG33285 | 1 | – | 60673 | 57763 |
| CG5273 | 1 | – | 40820 | 68880 |
| CR33319 (pseudo) | 1 | – | 92597 | 87903 |
| Capr (Caprin) | 1 | – | 48887 | 38460 |
| MFS1 (Major Facilitator Superfamily Transporter 1) | 1 | 2 to 3 SD above plate mean | 50040 | 47340 |
| Mcm10 (Minichromosome maintenance 10) | 1 | – | 91753 | 54217 |
| CG30350 | 1 | – | 49057 | 87447 |
| dyw (daywake) | 1 | – | 44370 | 54230 |
| CG33310 | 1 | – | 66533 | 73413 |
| Alg3 (ALG3, alpha-1,3- mannosyltransferase) | 1 | – | 69657 | 51140 |
